Some of these results come from one statement about several compounds together. For at least one compound, name, drawing or mass did not settle the structure.
system: HeLa cells; assay: Dose Enhancing Factor: cell growth inhibition with bleomycin, SRB assay; assay type: cell-based; conditions: test compound 25 μM, bleomycin 0.5 μg/ml
Procedure: The Dose Enhancing Factor (DEF) is a ratio of the enhancement of cell growth inhibition elicited by the test compound in the presence of bleomycin compared to bleomycin alone. […] Bleomycin was used at a concentration of 0.5 μg/ml. The DEF was calculated from the formula:
[formula] where GrowthTC is cell growth in presence of the test compound; GrowthControl is cell growth of control cells; Growthbleo is cell growth in presence of bleomycin; and Growth(bleo+TC) is cell growth in presence of bleomycin and the test compound.
2,000 HeLa cells were seeded into each well of a flat-bottomed 96-well microtiter plate in a volume of 100 μl and incubated for 6 hours at 37° C. […] Cells were allowed to grow for a further 1 hour before the addition of bleomycin to either untreated cells or test compound treated cells. Cells untreated with either bleomycin or test compound were used as a control. Cells treated with test compound alone were used to assess the growth inhibition by the test compound.
Cells were left for a further 16 hours before replacing the media and allowing the cells to grow for a further 72 hours at 37° C. The media was then removed and the cells fixed with 100 μl of ice cold 10% (w/v) trichloroacetic acid. The plates were incubated at 4° C. for 20 minutes and then washed four times with water. Each well of cells was then stained with 100 μl of 0.4% (w/v) SRB in 1% acetic acid for 20 minutes before washing four times with 1% acetic acid. Plates were then dried for 2 hours at room temperature. The dye from the stained cells was solubilized by the addition of 100 μl of 10 mM Tris Base into each well.

SMILES | DEF (Dose Enhancing Factor)
CC1Cc2ccccc2C1c1n[nH]c(=O)c2ccccc12 (mixture of isomers) [Compound 284] | greater than 1
O=c1[nH]nc(Cc2ccccn2)c2ccccc12 [Compound 249] | greater than 1
O=C(Nc1cc(Cc2n[nH]c(=O)c3ccccc23)ccc1N1CCOCC1)c1cccc(CN2CCCC2)c1 [Compound 254] | greater than 1
O=C(CCCCl)Nc1cc(Cc2n[nH]c(=O)c3ccccc23)ccc1N1CCOCC1 [Compound 265, 4-chloro-N-[2-morpholino-5-(1-oxophthalazin-4-ylmethyl)phenyl]butyramide] | greater than 1
O=C(Nc1ccccc1)c1cccc(Cc2n[nH]c(=O)c3ccccc23)c1 [Compound 278] | greater than 1
CCCC(c1ccccc1)c1n[nH]c(=O)c2ccccc12 (centres unmarked) [Compound 283] | greater than 1
O=C(Nc1cccc(Cc2n[nH]c(=O)c3ccccc23)c1)C1CCC1 [Compound 640] | greater than 1
O=C(Nc1cccc(Cc2n[nH]c(=O)c3ccccc23)c1)c1ccc2c(c1)OCO2 [Compound 645] | greater than 1
CCCCCCCC(=O)Nc1cccc(Cc2n[nH]c(=O)c3ccccc23)c1 [Compound 648] | greater than 1
CC(Cl)C(=O)Nc1cccc(Cc2n[nH]c(=O)c3ccccc23)c1 (centres unmarked) [Compound 649] | greater than 1
C/C=C/C(=O)Nc1cccc(Cc2n[nH]c(=O)c3ccccc23)c1 [Compound 650] | greater than 1
O=C(Nc1cccc(Cc2n[nH]c(=O)c3ccccc23)c1)c1ccc2c(c1)OCCCO2 [Compound 651] | greater than 1
Cc1cc(C(=O)Nc2cccc(Cc3n[nH]c(=O)c4ccccc34)c2)cc(Cl)n1 [Compound 652] | greater than 1
O=C(Nc1cccc(Cc2n[nH]c(=O)c3ccccc23)c1)c1ccnc(Cl)c1 [Compound 653] | greater than 1
CC(C)(Oc1ccc(Cl)cc1)C(=O)Nc1cccc(Cc2n[nH]c(=O)c3ccccc23)c1 [Compound 654] | greater than 1
O=C(Nc1cccc(Cc2n[nH]c(=O)c3ccccc23)c1)c1ccc(OC(F)(F)F)cc1 [Compound 655] | greater than 1
O=C(Nc1cccc(Cc2n[nH]c(=O)c3ccccc23)c1)C1CCCCC1 [Compound 656] | greater than 1
O=C(Nc1cccc(Cc2n[nH]c(=O)c3ccccc23)c1)c1cc(F)cc2c1OCOC2 [Compound 657] | greater than 1
CCCc1ccc(C(=O)Nc2cccc(Cc3n[nH]c(=O)c4ccccc34)c2)cc1 [Compound 658] | greater than 1
COc1ccc(C=CC(=O)Nc2cccc(Cc3n[nH]c(=O)c4ccccc34)c2)c(Cl)c1OC [Compound 667] | greater than 1
O=C(Nc1cccc(Cc2n[nH]c(=O)c3ccccc23)c1)c1ccc2nccnc2c1 [Compound 671] | greater than 1
O=C(Nc1cccc(Cc2n[nH]c(=O)c3ccccc23)c1)C1CCN(C(=O)OCc2ccccc2)CC1 [Compound 672] | greater than 1
Cc1nc(-c2ccc3c(c2)CCO3)sc1C(=O)Nc1cccc(Cc2n[nH]c(=O)c3ccccc23)c1 [Compound 678] | greater than 1
O=C(Nc1cccc(Cc2n[nH]c(=O)c3ccccc23)c1)c1cc(C(F)(F)F)cc(C(F)(F)F)c1 [Compound 680] | greater than 1
O=C(Nc1cccc(Cc2n[nH]c(=O)c3ccccc23)c1)c1cn(S(=O)(=O)c2ccccc2)c2ccccc12 [Compound 683] | greater than 1
CCCCCCCCCC(=O)Nc1cccc(Cc2n[nH]c(=O)c3ccccc23)c1 [Compound 684] | greater than 1
CCCC(=O)Nc1cccc(Cc2n[nH]c(=O)c3ccccc23)c1 [Compound 686] | greater than 1
CCC(=O)Nc1cccc(Cc2n[nH]c(=O)c3ccccc23)c1 [Compound 687] | greater than 1
CC(C)C(=O)Nc1cccc(Cc2n[nH]c(=O)c3ccccc23)c1 [Compound 688] | greater than 1

— patent US7750006B2, “Phthalazinone derivatives” (Kudos Pharmaceuticals Limited, priority 2000, dated 2010)
